The test deals with GST-EVH1 domain of VASP (UniProt P70460). The test can be described thus: pull-down.

Chains of the proteins cited; added tags and fusions are not shown. Lines headed by an entry give the natural chain unless they say otherwise; changes in a name come on top.
UniProt P70460: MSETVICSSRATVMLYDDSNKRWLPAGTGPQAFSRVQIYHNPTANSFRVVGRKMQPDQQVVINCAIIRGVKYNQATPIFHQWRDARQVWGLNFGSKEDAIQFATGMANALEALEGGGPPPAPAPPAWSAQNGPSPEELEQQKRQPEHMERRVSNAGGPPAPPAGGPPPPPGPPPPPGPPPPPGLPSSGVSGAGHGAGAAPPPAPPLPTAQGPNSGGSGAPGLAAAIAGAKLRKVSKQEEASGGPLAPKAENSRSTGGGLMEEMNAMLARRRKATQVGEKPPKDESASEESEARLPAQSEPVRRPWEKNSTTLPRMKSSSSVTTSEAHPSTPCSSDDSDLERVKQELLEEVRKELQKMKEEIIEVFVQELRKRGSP

Our source for the binding values is paper doi:10.1101/529222.

Results are given in words; binding and its absence hold for the method and conditions named. Binding seen in cells or lysates may run through a third protein. Binding can be weak; no strength is given.

B1: endogenous TRIM67 (protein, UniProt Q505D9 1-768)
chain: MEEELKCPVCGSLFREPIILPCSHNVCLPCARTIAVQTPDGEQHLPPPLLLSRGAAAAATPPDQDAAAGATSGGAGANTAGGLGGGATGGGDHADKLSLYSETDSGYGSYTPSLKSPNGVRVLPMVPAPPGSSAAAARGAACSSLCSSSSSITCPQCHRSASLDHRGLRGFQRNRLLEGIVQRYQQGRGVVPGAAAAPAVAICQLCDRTPPEPAATLCEQCDVLYCATCQLKCHPSRGPFAKHRLVQPPPPPTPPEATPAVTGTSTASSAGGCRSPGGAGASAPRKFPTCPEHEMENYSMYCVSCRSPVCYMCLEEGRHSKHEVKPLGATWKQHKAQLSQALNGVSDKAKEAKEFLVQLKNILQQIQENGLDYEACLVAQCDALVDALTRQKAKLLTKVTKEREHKLKMVWDQINHCTLKLRQSTGLMEYCLEVIKEDDPSGFLQISDALIKRVQTSQEQWVKGALEPKVSAEFDLTLDSEPLLQAIHQLDFVQMKLPPVPLLQLEKCCTRNNSVTLAWRTPPFTHSPAEGYILELDDGDGGQFREVYVGKETLCTIDGLHFNSTYNARVKAFNSSGVGPYSKTVVLQTSDVAWFTFDPNSGHRDIILSNDNQTATCSSYDDRVVLGTAAFSKGVHYWELHVDRYDNHPDPAFGVARASVVKDMMLGKDDKAWAMYVDNNRSWFMHCNSHTNRTEGGVCKGATVGVLLDLNKHTLTFFINGQQQGPTAFSHVDGVFMPALSLNRNVQVTLHTGLEVPTNLGRPKLSGN
On to B1, for which the binding result is recorded as “binds”.
